Measurements reported in publication PMC4546667.
No constants are given. Whether binding was seen depends on the method and setting. In cells and extracts the contact can be indirect. Binding can be weak; no strength is given. Sequences can lack the tags named with a protein.

Sequences of proteins named here, by UniProt entry; tags and fusion partners are left off. A change or cut given only in a name is not applied to a line headed by its entry.
UniProt P01009: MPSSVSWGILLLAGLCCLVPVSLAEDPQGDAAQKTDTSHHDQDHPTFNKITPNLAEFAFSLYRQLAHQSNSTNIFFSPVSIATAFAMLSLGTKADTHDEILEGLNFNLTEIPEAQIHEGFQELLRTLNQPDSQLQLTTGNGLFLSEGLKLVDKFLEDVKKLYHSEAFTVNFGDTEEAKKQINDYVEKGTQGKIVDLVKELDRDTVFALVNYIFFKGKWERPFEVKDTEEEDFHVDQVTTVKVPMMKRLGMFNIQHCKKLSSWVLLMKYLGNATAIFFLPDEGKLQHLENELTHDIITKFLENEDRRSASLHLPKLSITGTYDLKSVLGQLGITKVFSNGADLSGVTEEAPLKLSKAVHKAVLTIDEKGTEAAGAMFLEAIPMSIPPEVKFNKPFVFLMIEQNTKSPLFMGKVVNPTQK

Molecular target: T1, FLAG-tagged full-length FBG1 (UniProt Q9UK22)
T1 sequence: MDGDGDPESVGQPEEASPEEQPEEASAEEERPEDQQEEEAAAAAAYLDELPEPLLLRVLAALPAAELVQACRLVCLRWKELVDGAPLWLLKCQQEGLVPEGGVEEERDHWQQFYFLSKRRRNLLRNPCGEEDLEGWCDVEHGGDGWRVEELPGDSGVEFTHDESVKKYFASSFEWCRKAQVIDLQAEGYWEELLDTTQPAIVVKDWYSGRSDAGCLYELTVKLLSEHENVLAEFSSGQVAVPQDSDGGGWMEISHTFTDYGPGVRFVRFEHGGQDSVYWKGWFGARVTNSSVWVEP
Assay: co-IP; Hepa1-6 cells co-transfected with FLAG-FBG1 or FLAG-FBG1ΔN (or empty pCMV) and A1AT variants; lysed 48 h later in FLAG lysis buffer (50mM Tris pH 7.4, 150mM NaCl, 1mM EDTA, 1% Triton X-100); anti-FLAG M2 affinity gel, 4°C, 2 hours; eluted with 3xFLAG peptide; blot with anti-A1AT

binding: binds
Substance: A1AT-K (the truncation mutant null Hong Kong of alpha-1 antitrypsin) (from UniProt P01009)
